Data published in patent publication US10589001B2, “Pharmaceutical formulation for use in spinal fusion” (Kuros Biosurgery AG, priority 2011, dated 2020).

Assay: Adsorption of PTH1-34 onto HA/TCP granules (UV-Vis spectroscopy at 280 nm)
Format: physicochemical
Settings: UV-Vis 280 nm

PTH1-34: truncated parathyroid hormone 1-34, non covalently adsorbed onto ceramic matrix; no fusion peptide needed
amount of PTH1-34 present in the solution adsorbed onto the granules (1.0, 0.5, 0.25, 0.1, 0.05 mg PTH1-34/ml water or buffer mixed with HA/TCP granules): approximately 25%
maximum amount of PTH1-34 on the matrix (HA/TCP granules): 1 mg PTH per 1 g of matrix (HA/TCP)
